This is an account of results in US20040132641A1 (University of Pennsylvania, published 2004).

Sequences of proteins named here, by UniProt entry; tags and fusion partners are left off. Residues count along the entry.
UniProt P48023, residues 103-281: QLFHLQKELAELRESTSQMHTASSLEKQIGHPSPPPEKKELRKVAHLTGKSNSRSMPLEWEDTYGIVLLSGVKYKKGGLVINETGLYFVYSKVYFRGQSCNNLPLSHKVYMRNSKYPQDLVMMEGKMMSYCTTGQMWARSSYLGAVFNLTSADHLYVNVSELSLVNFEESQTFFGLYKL
UniProt P25445, residues 26-173: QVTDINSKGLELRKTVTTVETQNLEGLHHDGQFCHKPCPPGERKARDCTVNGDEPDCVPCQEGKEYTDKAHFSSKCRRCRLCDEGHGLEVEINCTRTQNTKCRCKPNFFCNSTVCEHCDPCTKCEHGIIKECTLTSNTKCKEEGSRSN

The assay deals with Flag-tagged soluble human Fas ligand (FasL-Flag) (human) (UniProt P48023). Kind of assay: competition ELISA: FasL-Flag (100 ng/ml) preincubated with soluble Fas-Fc, added to immobilised Fas-Fc, anti-Flag-HRP detection. A general note: In an ELISA, binding on a coated surface is turned into a signal by an enzyme label.

These are yes or no findings as the source states them, for the method shown. Some binding calls cover weakened binding; strength is not graded here.

For the substance “human Fas extra cellular domain-IgGFc fusion protein (Fas-Fc) (from UniProt P25445 26-173)”, the binding result is listed as “binds”.
